The test concerns the target With-no-lysine (WNK)1 kinase (mouse (endogenous in mouse podocytes)) (UniProt P83741). The test can be described thus: co-IP.

The chains behind the UniProt entries cited, without tags or fusion partners.
UniProt P83741: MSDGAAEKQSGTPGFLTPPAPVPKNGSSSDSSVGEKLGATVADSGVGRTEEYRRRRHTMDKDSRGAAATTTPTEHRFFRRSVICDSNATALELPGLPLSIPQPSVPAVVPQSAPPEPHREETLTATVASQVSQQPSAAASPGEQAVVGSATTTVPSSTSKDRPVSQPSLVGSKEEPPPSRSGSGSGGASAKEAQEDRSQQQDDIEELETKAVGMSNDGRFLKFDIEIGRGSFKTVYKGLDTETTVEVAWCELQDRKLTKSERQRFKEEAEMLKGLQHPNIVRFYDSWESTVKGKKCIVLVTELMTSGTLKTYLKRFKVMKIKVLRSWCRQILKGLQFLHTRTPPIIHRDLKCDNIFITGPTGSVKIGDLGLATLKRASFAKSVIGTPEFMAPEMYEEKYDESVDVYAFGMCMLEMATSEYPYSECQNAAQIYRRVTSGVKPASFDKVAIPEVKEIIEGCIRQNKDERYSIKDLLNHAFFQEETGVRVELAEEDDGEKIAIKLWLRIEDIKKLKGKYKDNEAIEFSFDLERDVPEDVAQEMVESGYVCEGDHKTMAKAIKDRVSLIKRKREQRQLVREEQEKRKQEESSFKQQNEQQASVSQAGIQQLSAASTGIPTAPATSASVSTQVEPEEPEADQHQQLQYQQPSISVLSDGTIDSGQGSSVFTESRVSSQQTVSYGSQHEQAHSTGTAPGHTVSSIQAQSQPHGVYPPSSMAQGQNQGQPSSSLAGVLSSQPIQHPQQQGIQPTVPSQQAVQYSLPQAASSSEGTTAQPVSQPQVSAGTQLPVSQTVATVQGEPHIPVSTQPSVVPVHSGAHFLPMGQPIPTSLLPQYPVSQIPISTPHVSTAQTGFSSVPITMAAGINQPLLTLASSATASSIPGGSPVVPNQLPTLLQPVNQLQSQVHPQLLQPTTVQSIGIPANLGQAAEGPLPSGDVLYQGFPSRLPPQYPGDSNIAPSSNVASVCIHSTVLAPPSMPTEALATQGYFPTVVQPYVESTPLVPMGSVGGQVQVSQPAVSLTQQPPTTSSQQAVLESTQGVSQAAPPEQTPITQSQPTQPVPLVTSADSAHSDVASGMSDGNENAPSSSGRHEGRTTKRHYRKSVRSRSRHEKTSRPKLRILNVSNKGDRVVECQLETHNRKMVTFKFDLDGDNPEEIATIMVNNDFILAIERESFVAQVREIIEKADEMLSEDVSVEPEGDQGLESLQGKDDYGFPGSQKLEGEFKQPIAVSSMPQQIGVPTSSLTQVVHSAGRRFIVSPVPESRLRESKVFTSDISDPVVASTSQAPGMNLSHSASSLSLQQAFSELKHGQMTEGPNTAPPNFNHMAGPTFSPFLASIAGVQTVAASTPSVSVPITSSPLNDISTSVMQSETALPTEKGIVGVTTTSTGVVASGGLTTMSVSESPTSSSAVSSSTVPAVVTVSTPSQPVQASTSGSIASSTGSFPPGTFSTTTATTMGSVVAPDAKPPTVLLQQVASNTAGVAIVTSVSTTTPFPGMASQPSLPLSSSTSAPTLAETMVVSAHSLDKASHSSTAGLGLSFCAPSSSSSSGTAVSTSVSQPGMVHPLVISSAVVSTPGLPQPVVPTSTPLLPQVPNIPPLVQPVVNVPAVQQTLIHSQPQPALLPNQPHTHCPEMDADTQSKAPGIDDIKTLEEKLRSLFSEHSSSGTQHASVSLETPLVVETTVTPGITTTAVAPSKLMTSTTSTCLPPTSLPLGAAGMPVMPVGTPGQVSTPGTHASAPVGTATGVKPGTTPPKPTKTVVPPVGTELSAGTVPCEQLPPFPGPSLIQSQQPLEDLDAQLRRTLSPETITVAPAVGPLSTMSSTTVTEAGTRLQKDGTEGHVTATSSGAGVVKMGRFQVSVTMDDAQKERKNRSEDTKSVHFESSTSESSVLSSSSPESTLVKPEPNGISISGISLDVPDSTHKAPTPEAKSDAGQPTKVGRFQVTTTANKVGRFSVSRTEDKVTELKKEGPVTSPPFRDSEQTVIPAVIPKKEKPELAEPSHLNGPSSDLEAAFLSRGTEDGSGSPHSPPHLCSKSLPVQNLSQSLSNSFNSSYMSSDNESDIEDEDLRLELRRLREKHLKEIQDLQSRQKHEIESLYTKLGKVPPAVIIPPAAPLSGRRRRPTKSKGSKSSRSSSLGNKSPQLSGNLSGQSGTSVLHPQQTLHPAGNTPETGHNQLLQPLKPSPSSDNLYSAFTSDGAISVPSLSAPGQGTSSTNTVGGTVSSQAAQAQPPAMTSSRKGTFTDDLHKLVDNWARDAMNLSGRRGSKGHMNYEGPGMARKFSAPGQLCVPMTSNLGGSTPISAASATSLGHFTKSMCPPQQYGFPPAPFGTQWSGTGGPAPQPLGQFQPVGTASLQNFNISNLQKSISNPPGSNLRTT
UniProt Q61879: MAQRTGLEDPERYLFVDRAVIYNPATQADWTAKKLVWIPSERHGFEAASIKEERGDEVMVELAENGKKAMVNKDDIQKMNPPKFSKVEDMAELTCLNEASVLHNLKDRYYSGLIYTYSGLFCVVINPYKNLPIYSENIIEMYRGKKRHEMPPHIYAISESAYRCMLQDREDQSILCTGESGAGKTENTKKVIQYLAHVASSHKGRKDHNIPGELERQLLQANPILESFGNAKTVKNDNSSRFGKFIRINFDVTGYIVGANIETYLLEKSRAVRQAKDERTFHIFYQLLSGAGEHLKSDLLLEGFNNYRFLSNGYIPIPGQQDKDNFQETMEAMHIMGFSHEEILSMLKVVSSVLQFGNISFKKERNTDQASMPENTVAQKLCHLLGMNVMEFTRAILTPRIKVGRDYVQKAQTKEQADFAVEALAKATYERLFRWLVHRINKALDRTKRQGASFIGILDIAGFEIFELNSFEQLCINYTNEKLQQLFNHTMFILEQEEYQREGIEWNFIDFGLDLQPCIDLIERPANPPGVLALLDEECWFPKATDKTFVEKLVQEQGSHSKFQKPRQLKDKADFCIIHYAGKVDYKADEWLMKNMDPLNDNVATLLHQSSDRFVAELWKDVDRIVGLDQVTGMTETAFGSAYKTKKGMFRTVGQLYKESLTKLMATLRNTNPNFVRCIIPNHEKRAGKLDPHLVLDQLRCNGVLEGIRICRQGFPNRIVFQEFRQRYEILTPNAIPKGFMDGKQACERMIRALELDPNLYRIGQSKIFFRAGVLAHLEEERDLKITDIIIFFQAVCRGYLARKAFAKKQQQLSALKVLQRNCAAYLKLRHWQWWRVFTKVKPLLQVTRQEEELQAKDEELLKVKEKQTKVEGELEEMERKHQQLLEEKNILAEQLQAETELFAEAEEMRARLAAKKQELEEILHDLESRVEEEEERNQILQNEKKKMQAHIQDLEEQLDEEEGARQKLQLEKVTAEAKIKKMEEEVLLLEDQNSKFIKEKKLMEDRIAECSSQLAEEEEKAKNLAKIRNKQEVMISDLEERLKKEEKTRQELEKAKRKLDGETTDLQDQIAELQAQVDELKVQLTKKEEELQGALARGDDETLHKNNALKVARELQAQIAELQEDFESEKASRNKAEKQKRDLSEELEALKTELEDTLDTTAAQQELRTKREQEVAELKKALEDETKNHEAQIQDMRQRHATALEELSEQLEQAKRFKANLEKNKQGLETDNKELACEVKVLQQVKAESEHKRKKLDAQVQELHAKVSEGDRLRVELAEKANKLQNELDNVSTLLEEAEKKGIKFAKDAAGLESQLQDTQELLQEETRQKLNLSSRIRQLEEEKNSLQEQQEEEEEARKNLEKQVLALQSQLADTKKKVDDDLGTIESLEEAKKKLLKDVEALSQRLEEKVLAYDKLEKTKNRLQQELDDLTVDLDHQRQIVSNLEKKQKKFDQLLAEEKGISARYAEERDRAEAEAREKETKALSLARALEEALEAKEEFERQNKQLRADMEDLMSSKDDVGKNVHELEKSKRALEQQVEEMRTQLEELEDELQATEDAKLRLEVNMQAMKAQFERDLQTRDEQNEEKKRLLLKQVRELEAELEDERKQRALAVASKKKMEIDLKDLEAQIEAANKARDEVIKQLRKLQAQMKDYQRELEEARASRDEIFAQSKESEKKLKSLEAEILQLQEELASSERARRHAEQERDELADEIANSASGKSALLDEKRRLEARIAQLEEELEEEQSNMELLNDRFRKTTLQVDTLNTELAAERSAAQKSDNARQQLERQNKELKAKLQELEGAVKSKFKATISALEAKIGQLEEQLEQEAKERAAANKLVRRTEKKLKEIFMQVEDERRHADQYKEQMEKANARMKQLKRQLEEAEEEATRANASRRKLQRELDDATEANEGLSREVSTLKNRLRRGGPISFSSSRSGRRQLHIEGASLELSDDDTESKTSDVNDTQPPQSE

No constants are given. Whether binding was seen depends on the method and setting. Binding seen in cells or lysates may run through a third protein. Some binding calls cover weakened binding; strength is not graded here.

“Non-muscle myosin IIB (from UniProt Q61879 1-1976)”: the binding entry is on record as “binds”.

B1: Myosin light chain phosphatase regulatory myosin target subunit MYPT1 (protein, UniProt Q9DBR7 1-1029)
chain: MKMADAKQKRNEQLKRWIGSETDLEPPVVKRQKTKVKFDDGAVFLAACSSGDTDEVLKLLHRGADINYANVDGLTALHQACIDDNVDMVKFLVENGANINQPDNEGWIPLHAAASCGYLDIAEFLIGQGAHVGAVNSEGDTPLDIAEEEAMEELLQNEVNRQGVDIEAARKEEERVMLRDARQWLNSGHISDVRHAKSGGTALHVAAAKGYTEVLKLLIQAGYDVNIKDYDGWTPLHAAAHWGKEEACRILVDNLCDMETVNKVGQTAFDVADEDILGYLEELQKKQTLLHSEKRDKKSPLIESTANMENNQPQKAFKNKETLIIEPEKNASRIESLEHEKADEEEEGKKDESSCSSEEDEEDDSESEAETDKTKPMASVSNAHTSSTQAAPAAVTAPTLSSNQGTPTSPVKKFPISTTKISPKEEERKDESPASWRLGLRKTGSYGALAEISASKEAQKEKDTAGVMRSASSPRLSSSLDNKEKEKDNKGTRLAYVTPTIPRRLASTSDIEEKENRESSSLRTSSSYTRRKWEDDLKKNSSINEGSTYHRSCSFGRRQDDLISCSVPSTTSTPTVTSAAGLQRSLPSSTSTAAKTPPGSSSAGTQSSTSNRLWAEDSTEKEKDSAPTAVTIPVAPTVVNAAAPSTTTLTTTTAGTVSEVRERRRSYLTPVRDEESESQRKARSRQARQSRRSTQGVTLTDLQEAEKTIGRSRSTRTREQENEEKEKEEKEKQDKEKQEEKKESEASREDEYKQKYSRTYDETYTRYRPVSTSSSSAPSSSSLSTLGSTLYASSQLNRPNSLVGITSAYSRGLAKENEREGEKKEEEKEGEDKSQPKSIRERRRPREKRRSTGVSFWTQDSDENEQERQSDTEDGSSKRETQTDSVSRYDSSSTSSSDRYDSLLGRSASYSYLEDRKPYSSRLEKDDSTDFKKLYEQILAENEKLKAQLHDTNMELTDLKLQLEKATQRQERFADRSQLEMEKRERRALERRISEMEEELKMLPDLKADNQRLKDENGALIRVISKLSK
Regarding B1, the binding entry was “binds”.

B2: Vinculin (protein, UniProt Q64727 1-1066)
chain: MPVFHTRTIESILEPVAQQISHLVIMHEEGEVDGKAIPDLTAPVAAVQAAVSNLVRVGKETVQTTEDQILKRDMPPAFIKVENACTKLVQAAQMLQSDPYSVPARDYLIDGSRGILSGTSDLLLTFDEAEVRKIIRVCKGILEYLTVAEVVETMEDLVTYTKNLGPGMTKMAKMIDERQQELTHQEHRVMLVNSMNTVKELLPVLISAMKIFVTTKNSKNQGIEEALKNRNFTVEKMSAEINEIIRVLQLTSWDEDAWASKDTEAMKRALASIDSKLNQAKGWLRDPNASPGDAGEQAIRQILDEAGKVGELCAGKERREILGTCKMLGQMTDQVADLRARGQGASPVAMQKAQQVSQGLDVLTAKVENAARKLEAMTNSKQSIAKKIDAAQNWLADPNGGPEGEEQIRGALAEARKIAELCDDPKERDDILRSLGEIAALTSKLGDLRRQGKGDSPEARALAKQVATALQNLQTKTNRAVANSRPAKAAVHLEGKIEQAQRWIDNPTVDDRGVGQAAIRGLVAEGHRLANVMMGPYRQDLLAKCDRVDQLTAQLADLAARGEGESPQARALASQLQDSLKDLKAQMQEAMTQEVSDVFSDTTTPIKLLAVAATAPPDAPNREEVFDERAANFENHSGRLGATAEKAAAVGTANKSTVEGIQASVKTARELTPQVISAARILLRNPGNQAAYEHFETMKNQWIDNVEKMTGLVDEAIDTKSLLDASEEAIKKDLDKCKVAMANIQPQMLVAGATSIARRANRILLVAKREVENSEDPKFREAVKAASDELSKTISPMVMDAKAVAGNISDPGLQKSFLDSGYRILGAVAKVREAFQPQEPDFPPPPPDLEQLRLTDELAPPKPPLPEGEVPPPRPPPPEEKDEEFPEQKAGEVINQPMMMAARQLHDEARKWSSKGNDIIAAAKRMALLMAEMSRLVRGGSGTKRALIQCAKDIAKASDEVTRLAKEVAKQCTDKRIRTNLLQVCERIPTISTQLKILSTVKATMLGRTNISDEESEQATEMLVHNAQNLMQSVKETVREAEAASIKIRTDAGFTLRWVRKTPWYQ
B2: the binding result is reported as “binds”.

For the origin of these results see publication doi:10.1101/2025.05.30.657136.
